Values of other authors in patent US20040235942A1 (priority 2003, published 2004).
At least one structure is not confirmed: it was looked up by name or label, or the drawing left a doubt.

Conditions: trial similar in design to PREVENT; cited from earlier work

## CCOC(=O)CN[C@@H](C(=O)N1CC[C@H]1C(=O)NCc1ccc(/C(N)=N\O)cc1)C1CCCCC1 [ximelagatran]
  efficacy compared to placebo in long-term management of VTE: highly effective
